Data on 5 substances can be found in paper PMC9610943 (Pharmaceutics, 2022).

The data set in a line: peptide made by a vendor. The settings on record: whole synthesis.

Strings that start with PEPTIDE1 are HELM notation: dots part the residues, brackets hold end groups and non-standard residues.

Regarding “PEPTIDE1{G.W.G.S.F.F.K.K.A.A.H.V.G.K.H.V.G.K.A.A.L.T.H.Y.L}$$$$V2.0”, the “purity (crude or final not stated)” value amounted to 96.68%.

As for “PEPTIDE1{G.W.G.S.F.F.K.K.A.A.H.V.G.K}$$$$V2.0”, the “purity (crude or final not stated)” value is given as 95.59%.

Turning to “PEPTIDE1{G.W.K.K.F.F.K.K.W.K.H.V.W.K}$$$$V2.0”, the “purity (crude or final not stated)” value is 95.52%.

For the substance “PEPTIDE1{G.W.K.S.F.F.K.K.F.K.H.V.W.K}$$$$V2.0”, the “purity (crude or final not stated)” value was 95.58%. Turning to “PEPTIDE1{G.W.K.S.F.F.K.K.W.K.H.V.W.K}$$$$V2.0”, the “purity (crude or final not stated)” value is listed as 95.35%.
